Source: article PMC3459987
These are yes or no findings as the source states them, for the method shown. Binding seen in cells or lysates may run through a third protein. Some entries that bind do so weakly or less than the wild type. One block for each molecule: values may come before it.

Protein sequences, listed by entry. Tags and fused reporters are not part of them.
UniProt P0DP91: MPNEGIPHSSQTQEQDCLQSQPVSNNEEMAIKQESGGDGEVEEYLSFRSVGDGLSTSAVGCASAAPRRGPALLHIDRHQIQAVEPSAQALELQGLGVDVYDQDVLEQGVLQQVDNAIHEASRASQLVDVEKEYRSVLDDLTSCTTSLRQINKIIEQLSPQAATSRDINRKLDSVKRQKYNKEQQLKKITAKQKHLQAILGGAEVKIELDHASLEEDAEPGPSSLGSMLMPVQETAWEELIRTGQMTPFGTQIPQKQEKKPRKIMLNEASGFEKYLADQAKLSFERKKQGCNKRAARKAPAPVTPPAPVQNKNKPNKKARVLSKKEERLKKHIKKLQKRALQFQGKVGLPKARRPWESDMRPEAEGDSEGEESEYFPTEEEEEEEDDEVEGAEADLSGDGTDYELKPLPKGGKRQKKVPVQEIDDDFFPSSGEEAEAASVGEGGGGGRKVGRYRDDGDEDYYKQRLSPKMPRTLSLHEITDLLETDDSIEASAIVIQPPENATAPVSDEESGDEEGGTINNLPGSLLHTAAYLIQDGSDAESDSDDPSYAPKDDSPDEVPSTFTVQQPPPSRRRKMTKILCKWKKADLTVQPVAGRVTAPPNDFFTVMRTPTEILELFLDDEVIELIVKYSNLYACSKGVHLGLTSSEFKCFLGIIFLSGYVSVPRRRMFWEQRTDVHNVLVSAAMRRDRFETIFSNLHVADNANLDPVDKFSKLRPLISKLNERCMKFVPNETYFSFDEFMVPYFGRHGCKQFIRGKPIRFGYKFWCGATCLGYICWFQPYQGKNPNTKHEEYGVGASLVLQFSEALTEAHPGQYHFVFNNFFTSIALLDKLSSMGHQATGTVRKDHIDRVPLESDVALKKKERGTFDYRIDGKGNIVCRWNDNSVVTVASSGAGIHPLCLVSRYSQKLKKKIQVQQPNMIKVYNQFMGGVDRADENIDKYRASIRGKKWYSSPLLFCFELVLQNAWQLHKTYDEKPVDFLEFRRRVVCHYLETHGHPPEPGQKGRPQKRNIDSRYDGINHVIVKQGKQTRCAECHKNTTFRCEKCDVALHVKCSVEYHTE

Tests used:
Experiment in all cases: co-IP; nuclear lysates of UVSS1KO cells stably expressing FLAG-HA-tagged proteins; IP with anti-FLAG, anti-c-Jun or nonspecific antibody in IP50 buffer (10 mM TrisHCl, 50 mM KCl, 0.1 mM EDTA, 10% glycerol), Protein G Dynabeads; Western blot with anti-c-Jun or anti-FLAG
[1] = target: FLAG-HA-tagged CSB-PGBD3 fusion protein (human) (UniProt P0DP91)
[2] = target: c-Jun (human (endogenous in UVSS1KO)) (UniProt P05412)
[3] = target: FLAG-HA-tagged full-length CSB (human), Q03468; settings: remark: other sources report otherwise

- binding [1]: binds
Molecule: c-Jun (from UniProt P05412 1-331)

- binding [2]: binds
Molecule: FLAG-HA-tagged CSB-PGBD3 fusion protein (from UniProt P0DP91 1-1061)

- binding [3]: no binding
B1: c-Jun, P05412 1-331 (protein)
chain: MTAKMETTFYDDALNASFLPSESGPYGYSNPKILKQSMTLNLADPVGSLKPHLRAKNSDLLTSPDVGLLKLASPELERLIIQSSNGHITTTPTPTQFLCPKNVTDEQEGFAEGFVRALAELHSQNTLPSVTSAAQPVNGAGMVAPAVASVAGGSGSGGFSASLHSEPPVYANLSNFNPGALSSGGGAPSYGAAGLAFPAQPQQQQQPPHHLPQQMPVQHPRLQALKEEPQTVPEMPGETPPLSPIDMESQERIKAERKRMRNRIAASKCRKRKLERIARLEEKVKTLKAQNSELASTANMLREQVAQLKQKVMNHVNSGCQLMLTQQLQTF
